Source: the supplement of paper PMC6078165

Test system: MDAMB468
Experiment: relative JC-1 red fluorescence (viability) vs pre-drug, coculture with fibroblast (fraction); higher = more viable cancer cells
Experimental: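 JC-1 labelled TNBC cells cocultured 1:1 (1,500 cells each) with CellTrace Violet stained primary or stromal fibroblasts in 384-well plates in FluoroBrite medium, treated with one of 42 anticancer drugs at 0.1, 1, 10 or 100 uM. JC-1 red fluorescence (mitochondrial integrity in cancer cells only) was read by plate reader every 8 h for 72 h. Values are normalised to each well's pre-drug value. The stock of one drug was tenfold lower, so its dose labels may be too high.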

O=C(O)C1(C(=O)O)CCC1.[NH2-].[NH2-].[Pt+2] [Carboplatin]
relative JC-1 red fluorescence
Settings | 8 h | 16 h | 24 h | 32 h | 40 h | 48 h | 56 h | 64 h | 72 h
0.1 µM, coculture fibroblast: C12385 | 0.889 | 0.8383 | 0.7924 | 0.7456 | 0.7177 | 0.7082 | 0.665 | 0.643 | 0.638
0.1 µM, coculture fibroblast: H6013 | 0.877 | 0.808 | 0.8002 | 0.7973 | 0.77 | 0.775 | 0.7445 | 0.7264 | 0.6802
0.1 µM, coculture fibroblast: H6019 | 0.845 | 0.778 | 0.762 | 0.705 | 0.656 | 0.634 | 0.577 | 0.543 | 0.517
0.1 µM, coculture fibroblast: H6076 | 0.9541 | 0.9474 | 0.883 | 0.893 | 0.827 | 0.825 | 0.787 | 0.774 | 0.836
0.1 µM, coculture fibroblast: H6231 | 0.816 | 0.966 | 0.877 | 0.828 | 0.781 | 0.756 | 0.698 | 0.665 | 0.63
0.1 µM, coculture fibroblast: HADF | 0.875 | 0.819 | 0.774 | 0.748 | 0.697 | 0.684 | 0.645 | 0.625 | 0.5923
0.1 µM, coculture fibroblast: HCFa | 0.851 | 0.771 | 0.732 | 0.715 | 0.645 | 0.63645 | 0.584 | 0.547 | 0.501
0.1 µM, coculture fibroblast: HCPF | 0.908 | 0.958 | 0.907 | 0.8926 | 0.81 | 0.7926 | 0.75 | 0.738 | 0.73
0.1 µM, coculture fibroblast: HHSteC | 0.89961 | 0.8395 | 0.816 | 0.7824 | 0.7553 | 0.755 | 0.699 | 0.671 | 0.615
0.1 µM, coculture fibroblast: HMF | 0.881 | 0.925 | 0.85287 | 0.856 | 0.776 | 0.771 | 0.724 | 0.706 | 0.708
0.1 µM, coculture fibroblast: HPFa | 0.908 | 0.879 | 0.825 | 0.764 | 0.724 | 0.709 | 0.64 | 0.603 | 0.526
0.1 µM, coculture fibroblast: HUF | 0.9187 | 0.836 | 0.766 | 0.703 | 0.646 | 0.626 | 0.587 | 0.56 | 0.531
0.1 µM, coculture fibroblast: Hs5 | 0.752 | 0.94 | 0.9339 | 0.886 | 0.811 | 0.777 | 0.73 | 0.688 | 0.691
0.1 µM, coculture fibroblast: Hs27A | 0.853 | 0.7718 | 0.7411 | 0.7425 | 0.678 | 0.674 | 0.632 | 0.613 | 0.5732
0.1 µM, coculture fibroblast: Hs343T | 0.899 | 0.927 | 0.8657 | 0.856 | 0.785 | 0.777 | 0.722 | 0.716 | 0.695
0.1 µM, coculture fibroblast: WS1 | 0.867 | 0.789 | 0.721 | 0.651 | 0.614 | 0.583 | 0.557 | 0.527 | 0.526
1 µM, coculture fibroblast: C12385 | 0.8261 | 0.806 | 0.772 | 0.714 | 0.672 | 0.66 | 0.615 | 0.594 | 0.579
1 µM, coculture fibroblast: H6013 | 0.8628 | 0.851 | 0.818 | 0.807 | 0.811 | 0.812 | 0.785 | 0.764 | 0.705
1 µM, coculture fibroblast: H6019 | 0.809 | 0.78 | 0.751 | 0.698 | 0.657 | 0.642 | 0.593 | 0.558 | 0.535
1 µM, coculture fibroblast: H6076 | 0.911 | 0.907 | 0.881 | 0.896 | 0.832 | 0.833 | 0.82 | 0.813 | 0.863
1 µM, coculture fibroblast: H6231 | 0.839 | 0.876 | 0.851 | 0.866 | 0.814 | 0.798 | 0.753 | 0.727 | 0.714
1 µM, coculture fibroblast: HADF | 0.8694 | 0.8171 | 0.744 | 0.7169 | 0.6728 | 0.6539 | 0.6109 | 0.595 | 0.5475
1 µM, coculture fibroblast: HCFa | 0.85122 | 0.8255 | 0.763 | 0.73119 | 0.6676 | 0.659 | 0.5958 | 0.5593 | 0.516
1 µM, coculture fibroblast: HCPF | 0.863 | 0.781 | 0.876 | 0.864 | 0.793 | 0.768 | 0.719 | 0.706 | 0.6954
1 µM, coculture fibroblast: HHSteC | 0.888 | 0.902 | 0.872 | 0.851 | 0.825 | 0.828 | 0.764 | 0.751 | 0.697
1 µM, coculture fibroblast: HMF | 0.8241 | 0.88 | 0.795 | 0.769 | 0.696 | 0.6759 | 0.635 | 0.616 | 0.604
1 µM, coculture fibroblast: HPFa | 0.9309 | 0.876 | 0.838 | 0.778 | 0.737 | 0.732 | 0.6508 | 0.6216 | 0.5382
1 µM, coculture fibroblast: HUF | 0.89 | 0.844 | 0.8093 | 0.7493 | 0.71342 | 0.69 | 0.647 | 0.6251 | 0.603
1 µM, coculture fibroblast: Hs5 | 0.9692 | 0.921 | 0.8915 | 0.867 | 0.78614 | 0.7569 | 0.713 | 0.6731 | 0.678
1 µM, coculture fibroblast: Hs27A | 0.8616 | 0.8599 | 0.7867 | 0.7887 | 0.739 | 0.735 | 0.69 | 0.669 | 0.628
1 µM, coculture fibroblast: Hs343T | 0.864 | 0.878 | 0.844 | 0.839 | 0.763 | 0.746 | 0.708 | 0.695 | 0.691
1 µM, coculture fibroblast: WS1 | 0.8278 | 0.799 | 0.745 | 0.683 | 0.642 | 0.61 | 0.581 | 0.561 | 0.549

Values are relative to the signal before dosing, not to a vehicle control; the signal also falls without drug.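 Fibroblast labels name human fibroblasts: mostly primary ones from tissues such as uterus (C12385, HUF), lung (H6013), bone (Hs27A), adrenal (HADF) and skin (WS1), plus mammary HMF and breast cancer-associated Hs343T. The cancer cells are basal-like or mesenchymal-like triple-negative breast cancer lines. The paper calls a changed response a hit when it shifts by more than 3x the replicate standard deviation. The tissue of the other fibroblasts is not given here.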
